Results are given in words; binding and its absence hold for the method and conditions named. Binding seen in cells or lysates may run through a third protein. Some entries that bind do so weakly or less than the wild type. For part of these data: Where a sequence is shown, tags or fusion partners need not be part of it.

The target of test [1] is T1, GFP-SH3BGRL (human) (UniProt O75368).
T1 sequence: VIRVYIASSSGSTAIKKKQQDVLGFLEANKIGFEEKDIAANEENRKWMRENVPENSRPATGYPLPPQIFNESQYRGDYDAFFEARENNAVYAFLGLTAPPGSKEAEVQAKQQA
Kind of test: co-IP; HEK293T co-transfected with GFP-SH3BGRL and YFP-HER2 for 48 h; lysis buffer 20 mM Tris pH 7.4, 150 mM NaCl, 1% NP-40, 20 mM EDTA; IP with SH3BGRL-specific antibody or control IgG overnight at 4 °C, protein A or G magnetic beads; western blot. On the technique in general: In western blotting, separated proteins are transferred to a membrane and probed.

The target of test [2] is endogenous SH3BGRL (human (endogenous in MDA-MB-453)) (UniProt O75368). Nature of the test: co-IP; endogenous proteins in MDA-MB-453 lysate; reciprocal IP with anti-SH3BGRL or anti-HER2 antibody, normal IgG as control; overnight at 4 °C, protein A or G magnetic beads; western blot.
Test [3] concerns the target endogenous HER2 (human (endogenous in MDA-MB-453)) (UniProt P04626). The description is as above.

With “YFP-HER2 (from UniProt P04626 23-1255) (receptor)”, in test [1], the binding entry is “binds”. For “endogenous HER2 (from UniProt P04626 23-1255) (receptor)”, the binding entry in test [2] was “binds”.

For the substance “endogenous SH3BGRL (from UniProt O75368 1-114)”, the binding result in test [3] was “binds”.

For the origin of these results see PMC7204297.
